Here are results for six substances from publication doi:10.1101/368704.

These are yes or no findings as the source states them, for the method shown. Binding calls can cover weak binding; strength is not graded here. Tags and fused reporters may be left off the sequences shown.

The target in the assay is T1, TOPLESS amino-terminal region (AA 1-188; TPL-N), bait fused to the GAL4 DBD (A. thaliana) (UniProt Q94AI7).
T1 sequence: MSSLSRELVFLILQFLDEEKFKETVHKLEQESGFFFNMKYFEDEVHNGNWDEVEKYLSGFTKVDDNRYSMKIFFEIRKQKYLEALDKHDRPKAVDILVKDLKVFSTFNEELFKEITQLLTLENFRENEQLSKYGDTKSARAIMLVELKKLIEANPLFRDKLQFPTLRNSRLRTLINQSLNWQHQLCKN
Briefly: two-hybrid.
As to “RING/U-box protein AT3G05670, prey of the A. thaliana Y2H cDNA library”, the binding result was “binds”.
For “RING/U-box protein AT3G05670, prey of the binary Y2H fused to the GAL4 AD (from UniProt Q9M9X2)”, the binding result is recorded as “binds”.
Regarding “homeodomain TF AT2G40260, prey of the A. thaliana Y2H cDNA library”, the binding entry is “binds”.
In the case of “homeodomain TF AT2G40260, prey of the binary Y2H fused to the GAL4 AD (A. thaliana)”, the binding result was “binds”.
With “putative TF AT3G54390, prey of the A. thaliana Y2H cDNA library”, the binding result is reported as “binds”.
With “putative TF AT3G54390, prey of the binary Y2H fused to the GAL4 AD (A. thaliana)”, the binding entry is reported as “binds”.
